At least one structure is not confirmed: it was looked up by name or label, or the drawing left a doubt.
Tests used:
[1] = system: stool microbiome of Allo B6 recipients; assay: 16S rRNA gene sequencing of stool from allogeneic BMT recipients treated with deferasirox; type: in vivo, mouse; details: Allo B6 deferasirox 20 mg/kg oral daily vs vehicle, 21 days after BMT (FIGS. 12I and J)
[2] = system: T cells (IFNγ+CD4, IFNγ+CD8, Treg) in spleen; IFNγ, TNFα, IL17A in serum; assay: T cell phenotype in spleen and serum cytokines of BMT recipients treated with deferasirox; type: in vivo, mouse; details: recipients at day7 after BMT
[3] = system: GVHD in Allo B6 BMT recipients; assay: Survival and clinical GVHD score after allogeneic BMT (BALB/c to B6) with oral deferasirox; type: in vivo, mouse
[4] = system: GVHD in GF B6 BMT recipients; type: in vivo; details: deferasirox 20 mg/kg oral daily vs diluent control (FIGS. 13E and F)
Excerpt: (A) The details of the experimental design were shown in FIG. 12G to L. Quantification of iron in stool from colon and ileum in Allo B6 and Allo B6 deferasirox at 7 day and 21 day after BMT were shown (Day7, N=2, Day21, Vehicle: N=4, Deferasirox: N=2). (B) The percent of IFNγ+CD4, IFNγ+CD8, and Treg cells in spleen from recipients at day7 after BMT were shown (N=4). (C) The cytokine levels of IFNγ, TNFα, and IL17A in serum from recipients at day7 after BMT were shown (Vehicle: N=3, Deferasirox: N=4). (D to F) GF mice received BMT from BALB/c donor mice. BMT recipients were orally treated with deferasirox (20 mg/kg) and vehicle every day. (D) Hypoxyprobe staining and relative fluorescent intensity in colon from recipients 21 days after BMT (scale bar=50 μm). Three independent experiments were performed. Survival rate (E) and clinical GVHD score (F) of BMT recipients (Syn GF vehicle: N=2, Syn GF deferasirox: N=2, Allo GF vehicle: N=8, Allo GF deferasirox: N=10). The horizontal line in box (C) represents the median with the box bounding the interquartile range. The ends of the whisker lines represent the minimum and maximum values. […]
Because alteration of O2 affects host IECs in addition to the microbiome, we next determined whether restoring intestinal hypoxia by Fe chelation after allo-HSCT mitigated GVHD independent of its impact on dysbiosis. […]

O=C(O)c1ccc(-n2nc(-c3ccccc3O)nc2-c2ccccc2O)cc1 [deferasirox]
microbial diversity (inverse Simpson alpha diversity index, microbiome composition) [1]: increase in microbial diversity | Treg ratio in spleen ([2]; deferasirox vs vehicle (FIG. 13B)): did not show any effect | inflammatory cytokine secretion ([2]; deferasirox vs vehicle (FIGS. 13B and C)): did not show any effect | survival rate ([3]; Allo B6 deferasirox 20 mg/kg oral daily vs vehicle (FIG. 12K)): significantly reduced severity of clinical GVHD and survival | severity of clinical GVHD (clinical GVHD score) ([3]; Allo B6 deferasirox 20 mg/kg oral daily vs vehicle (FIG. 12L)): significantly reduced severity of clinical GVHD | survival of allogeneic GF mice [4]: improved survival when compared with diluent treated allo-recipients, but eventually succumbed to GVHD

Source: patent US20260232774A1, “COMPOSITIONS AND METHODS FOR TREATING INTESTINAL MICROBIOME DYSBIOSIS” (The Regents of the University of Michigan, priority 2023, published 2026)
